Results taken from patent US20250326797A1, “PROTEIN-PROTEIN INTERACTION MODULATORS AND METHODS FOR DESIGN THEREOF” (RAMOT AT TEL AVIV UNIVERSITY LTD., priority 2022, published 2025).
These are yes or no findings as the source states them, for the method shown. Some results given as binding are weak or reduced against the parent protein; the word gives no strength.

How the values were obtained:
[1] = target: Catalytic subunit of calcineurin (CaNA), residues 2-347 with substitutions Y341S, L343A and M347D (UniProt Q08209); experiment: fluorescence polarization competition; unlabeled peptide titrated against 100 nM FITC-labeled PVIVIT bound to 4 uM CaNA
[2] = target: Catalytic subunit of calcineurin (CaNA), residues 2-347 with substitutions Y341S, L343A and M347D (UniProt Q08209); experiment: FP competition assay against FITC-PVIVIT on CaNA

Binder | binding [1] | binding [2]
ADGAGVGIVITVTEAE (designed binder, N-ter acetylation and C-ter amidation) [rbmAKAP79_2] |  | binds
AAGAGVGIVITVTEAE (designed binder, N-ter acetylation and C-ter amidation) [rbmAKAP79] | binds | binds

The remaining lines, values ahead:

binding [1] | binding [2] | Binder
binds | binds | ADEAIPEIVISKPEEP (designed binder, N-ter acetylation and C-ter amidation) [rbmTRESK]
binds |  | HVSSSPRITITPTQHR (designed binder, N-ter acetylation and C-ter amidation) [rbmRIPOR2_2]
